Test results as given in patent US8173840B2, “Compounds with high therapeutic index” (Signature R&D Holdings, LLC, priority 2003, dated 2012).
Entries after “also recorded” stand apart in the source; their conditions may differ. No dose or concentration is given here for some results.

Test: Benefits found for amino acid derivatives of drugs (Table 1, key a-q)
Parameters: key: Improved taste smell; Desired Octanol/water partition coefficient (i.e. solubility in water); c: Improved stability in vitro and in vivo; Penetration of blood-brain barrier; Elimination of first pass effect in liver; Reduction of enterohepatic recirculation; g: Painless injections with parenteral formulations; h: Improved bioavailability; Increased rate of absorption; j: Reduced side effects; k: Dose proportionability; Selective hydrolysis of the derivative at site of actions; m: Controlled release properties; n: Targeted drug delivery; Reduction in toxicity, hence improved therapeutic ratio; p: Reduced dose; q: Alteration of metabolic pathway to deliver more drug at site of action
Settings: not given

| SMILES | Improvements with derivatives |
| --- | --- |
| CC(C)c1cccc(C(C)C)c1O [Propofol injection, 2,6-diisopropylphenol, reference compound] | b, c, d, g,; also recorded: h, j, k, l,; also recorded: m, n, o, p, q |
| CCC(=O)O[C@](Cc1ccccc1)(c1ccccc1)[C@H](C)CN(C)C [Propoxyphene] | a, b, c, h, i, j,; also recorded: k, l, o, p |

Same assay, conditions: amino acid derivatives of the named drug; each letter is one benefit of key a-q

| SMILES | Improvements with derivatives |
| --- | --- |
| Nc1nc2c(ncn2COCCO)c(=O)[nH]1 [Acyclovir] | b and c and h and i and j and k and o and p |
| CCOC(=O)[C@H](CCc1ccccc1)N[C@H]1CCc2ccccc2N(CC(=O)O)C1=O [Benazepril] | j and o |
| CCOC(=O)[C@H](CCc1ccccc1)N[C@@H](C)C(=O)N1CCC[C@H]1C(=O)O [Enalapril, reference compound] | j and o |
| Cc1c(-c2ccccc2)oc2c(C(=O)OCCN3CCCCC3)cccc2c1=O [Flavoxate] | b and h and i and j and k and l and o and p |
| CCOC(=O)[C@H](CCc1ccccc1)N[C@@H](C)C(=O)N1Cc2cc(OC)c(OC)cc2C[C@H]1C(=O)O [Moexipril] | j and o |
| CC(C)(C)NCC(O)COc1cccc2c1CC(O)C(O)C2 (stereo not shown) [Nadolol] | b and h and i and j and k and l and o and p |
| Cc1c(O)cccc1C(=O)N[C@@H](CSc1ccccc1)[C@H](O)CN1C[C@H]2CCCC[C@H]2C[C@H]1C(=O)NC(C)(C)C [Nelfinavir] | b and h and i and j and k and o and p |
| CCC[C@H](N[C@@H](C)C(=O)N1[C@H](C(=O)O)C[C@@H]2CCCC[C@@H]21)C(=O)OCC [Perindopril] | j and o |
| CCOC(=O)[C@H](CCc1ccccc1)N[C@@H](C)C(=O)N1[C@H](C(=O)O)C[C@@H]2CCC[C@@H]21 [Ramipril] | j and o |
| O=C(Oc1ccccc1C(=O)O)c1ccccc1O [Salsalate] | b and c and h and i and j and k and o and p |
| CCOC(=O)[C@H](CCc1ccccc1)N[C@@H](C)C(=O)N1[C@H](C(=O)O)C[C@H]2CCCC[C@@H]21 [Trandolapril] | j and o |
| N[C@@H]1[C@H]2CN(c3nc4c(cc3F)c(=O)c(C(=O)O)cn4-c3ccc(F)cc3F)C[C@@H]12 [Trovafloxacin] | a and b and e and h and j and k and o and p |
| CCCCC(=O)N(Cc1ccc(-c2ccccc2-c2nnn[nH]2)cc1)[C@H](C(=O)O)C(C)C [Valsartan] | b and f and i and j and k and l and o and p |
| CC(c1cc2ccccc2s1)N(O)C(N)=O (stereo not shown) [Zileuton] | b and h and i and j and k and o and p |
